This series relates to S. epidermidis cultures. Put plainly: Confocal fluorescence microscopy (CFM) localisation of FITC-labelled peptide. The series is classed as cell-based, Staphylococcus epidermidis. The conditions noted are these: 10 μM FITC-labelled peptide, 1, 4 or 24 h.

As for “KRFKKFFMKLK-FITC (FITC label) [Pseudonajide, FITC-labelled antimicrobial peptide, reference compound]”, the “localisation of peptide (CFM)” value is recorded as “green fluorescence in the cells but not in the matrix”.

These data come from patent US20220153786A1, “PEPTIDES FOR PREVENTING BIOFILM FORMATION” (priority 2019, published 2022).
